These are yes or no findings as the source states them, for the method shown. In cells and extracts the contact can be indirect. Some results given as binding are weak or reduced against the parent protein; the word gives no strength.
B1: GPCR-associated sorting protein 1 (GASP-1), full-length (protein, UniProt Q5JY77 1-1395)
chain: MTGAEIESGAQVKPEKKPGEEVVGGAEIENDVPLVVRPKVRTQAQIMPGARPKNKSKVMPGASTKVETSAVGGARPKSKAKAIPVSRFKEEAQMWAQPRFGAERLSKTERNSQTNIIASPLVSTDSVLVAKTKYLSEDRELVNTDTESFPRRKAHYQAGFQPSFRSKEETNMGSWCCPRPTSKQEASPNSDFKWVDKSVSSLFWSGDEVTAKFHPGNRVKDSNRSMHMANQEANTMSRSQTNQELYIASSSGSEDESVKTPWFWARDKTNTWSGPREDPNSRSRFRSKKEVYVESSSGSEHEDHLESWFGAGKEAKFRSKMRAGKEANNRARHRAKREACIDFMPGSIDVIKKESCFWPEENANTFSRPMIKKEARARAMTKEEAKTKARARAKQEARSEEEALIGTWFWATDESSMADEASIESSLQVEDESIIGSWFWTEEEASMGTGASSKSRPRTDGERIGDSLFGAREKTSMKTGAEATSESILAADDEQVIIGSWFWAGEEVNQEAEEETIFGSWFWVIDAASVESGVGVSCESRTRSEEEEVIGPWFWSGEQVDIEAGIGEEARPGAEEETIFGSWFWAENQTYMDCRAETSCDTMQGAEEEEPIIGSWFWTRVEACVEGDVNSKSSLEDKEEAMIPCFGAKEEVSMKHGTGVRCRFMAGAEETNNKSCFWAEKEPCMYPAGGGSWKSRPEEEEDIVNSWFWSRKYTKPEAIIGSWLWATEESNIDGTGEKAKLLTEEETIINSWFWKEDEAISEATDREESRPEAEEGDIIGSWFWAGEEDRLEPAAETREEDRLAAEKEGIVGSWFGAREETIRREAGSCSKSSPKAEEEEVIIGSWFWEEEASPEAVAGVGFESKPGTEEEEITVGSWFWPEEEASIQAGSQAVEEMESETEEETIFGSWFWDGKEVSEEAGPCCVSKPEDDEEMIVESWFWSRDKAIKETGTVATCESKPENEEGAIVGSWFEAEDEVDNRTDNGSNCGSRTLADEDEAIVGSWFWAGDEAHFESNPSPVFRAICRSTCSVEQEPDPSRRPQSWEEVTVQFKPGPWGRVGFPSISPFRFPKEAASLFCEMFGGKPRNMVLSPEGEDQESLLQPDQPSPEFPFQYDPSYRSVQEIREHLRAKESTEPESSSCNCIQCELKIGSEEFEELLLLMEKIRDPFIHEISKIAMGMRSASQFTRDFIRDSGVVSLIETLLNYPSSRVRTSFLENMIRMAPPYPNLNIIQTYICKVCEETLAYSVDSPEQLSGIRMIRHLTTTTDYHTLVANYMSGFLSLLATGNAKTRFHVLKMLLNLSENLFMTKELLSAEAVSEFIGLFNREETNDNIQIVLAIFENIGNNIKKETVFSDDDFNIEPLISAFHKVEKFAKELQGKTDNQNDPEGDQEN
modifications: [35S]-methionine labelled
B2: GASP-1 truncated mutant 380–1073 (central domain), in vitro translated (domain or fragment, UniProt Q5JY77 380-1073)
chain: MTKEEAKTKARARAKQEARSEEEALIGTWFWATDESSMADEASIESSLQVEDESIIGSWFWTEEEASMGTGASSKSRPRTDGERIGDSLFGAREKTSMKTGAEATSESILAADDEQVIIGSWFWAGEEVNQEAEEETIFGSWFWVIDAASVESGVGVSCESRTRSEEEEVIGPWFWSGEQVDIEAGIGEEARPGAEEETIFGSWFWAENQTYMDCRAETSCDTMQGAEEEEPIIGSWFWTRVEACVEGDVNSKSSLEDKEEAMIPCFGAKEEVSMKHGTGVRCRFMAGAEETNNKSCFWAEKEPCMYPAGGGSWKSRPEEEEDIVNSWFWSRKYTKPEAIIGSWLWATEESNIDGTGEKAKLLTEEETIINSWFWKEDEAISEATDREESRPEAEEGDIIGSWFWAGEEDRLEPAAETREEDRLAAEKEGIVGSWFGAREETIRREAGSCSKSSPKAEEEEVIIGSWFWEEEASPEAVAGVGFESKPGTEEEEITVGSWFWPEEEASIQAGSQAVEEMESETEEETIFGSWFWDGKEVSEEAGPCCVSKPEDDEEMIVESWFWSRDKAIKETGTVATCESKPENEEGAIVGSWFEAEDEVDNRTDNGSNCGSRTLADEDEAIVGSWFWAGDEAHFESNPSPVFRAICRSTCSVEQEPDPSRRPQSWEEVTVQFKPGPWGRVGFPSISPFRFPKE
modifications: [35S]-methionine labelled
B3: central domain of GASP-1 (AA 380 to 1073) expressed in HEK293 cells (domain or fragment, UniProt Q5JY77 380-1073)
chain: B2 chain

By UniProt entry, the sequences of proteins in these tests, tags left out. Residues count along the entry.
UniProt P34972, residues 295-360: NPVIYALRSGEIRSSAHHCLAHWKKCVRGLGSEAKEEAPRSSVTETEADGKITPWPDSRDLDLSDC
UniProt P08588: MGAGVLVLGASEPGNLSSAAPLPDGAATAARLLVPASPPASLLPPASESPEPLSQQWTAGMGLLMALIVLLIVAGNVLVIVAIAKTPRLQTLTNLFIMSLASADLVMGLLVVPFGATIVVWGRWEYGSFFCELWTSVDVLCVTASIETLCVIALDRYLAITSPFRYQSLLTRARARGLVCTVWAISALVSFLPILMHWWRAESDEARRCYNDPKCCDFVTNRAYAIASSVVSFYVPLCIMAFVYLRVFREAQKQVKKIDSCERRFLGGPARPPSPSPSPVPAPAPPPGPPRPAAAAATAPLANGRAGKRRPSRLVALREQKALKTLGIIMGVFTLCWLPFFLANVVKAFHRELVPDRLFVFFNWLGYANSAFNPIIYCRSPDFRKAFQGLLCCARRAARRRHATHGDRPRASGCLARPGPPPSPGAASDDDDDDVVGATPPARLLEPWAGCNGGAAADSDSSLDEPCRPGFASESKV
UniProt P11229: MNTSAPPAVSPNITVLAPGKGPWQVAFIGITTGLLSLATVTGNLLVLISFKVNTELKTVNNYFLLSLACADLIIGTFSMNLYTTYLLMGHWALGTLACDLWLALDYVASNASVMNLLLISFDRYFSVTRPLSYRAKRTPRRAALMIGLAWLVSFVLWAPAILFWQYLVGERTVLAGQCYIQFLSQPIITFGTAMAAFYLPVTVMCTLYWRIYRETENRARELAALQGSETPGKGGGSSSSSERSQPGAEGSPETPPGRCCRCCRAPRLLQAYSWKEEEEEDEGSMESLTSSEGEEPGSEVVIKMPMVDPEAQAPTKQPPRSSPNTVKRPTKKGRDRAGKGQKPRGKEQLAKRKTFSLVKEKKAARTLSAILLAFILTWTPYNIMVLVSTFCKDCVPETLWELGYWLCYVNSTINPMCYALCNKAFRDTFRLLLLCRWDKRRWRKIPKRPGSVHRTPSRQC

Key:
[1] = target: GST-fused C-tail of the cannabinoid type 2 receptor (residues 295–360) (human) (UniProt P34972); experiment: pull-down; GST-fused receptor C-tails immobilized on glutathione-Sepharose beads, incubated with [35S]-labelled in vitro translated GASPs 1 h at 4°C; 20 mM Tris-HCl pH 7.4, 150 mM NaCl, 1 mM EDTA, 1 mM DTT, 10% glycerol, 1% Triton X-100; Phosphor-imager quantification; only the target purified
[2] = target: GST-fused C-tail of the β2 adrenergic receptor (residues 322–413) (human) (UniProt P07550); experiment: as above
[3] = target: N-terminal GFP-tagged ADRB1 (UniProt P08588); experiment: co-IP; lysates of HEK293 cells stably expressing GFP-tagged receptors or MyrPalm-mYFP and transfected with the central domain of GASP-1; anti-GFP antibody and protein A-Sepharose; blot with anti-GASP serum; 0.3% Triton X-100
[4] = target: N-terminal GFP-tagged ADRB2 (UniProt P07550); experiment: as above
[5] = target: N-terminal GFP-tagged M1 receptor (UniProt P11229); experiment: as above

Binder	binding [1]	binding [2]	binding [3]	binding [4]	binding [5]
B1	binds	binds			
B2	binds				
B3			binds	binds	binds
